PubChem BioAssay AID686938, Drosophila RNAi Screening Center | 2013
In all, the deposit lists about 23,000 reagents; shown is an unselected part of those with a known target gene and a result. Of all reagents, 75 (0.33%) got an active call. 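Raw plate signals without normalisation; calls rest on plate z-scores that were not deposited; ratio present for only 364 wells.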 Entries without a mark were called inactive. Names joined by + are all predicted targets of the reagent. Not given: the dose of the treatment.

- Aim: 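Looking for CRAC channel components and the factors controlling them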 (primary screen)
- Cells: Drosophila S2R+ cells
- Reagent: long dsRNA against Drosophila genes, about 0.25 µg dsRNA per well, roughly 10,000 cells
- Timing: 5 days of knock-down before the calcium assay
- Treatment: thapsigargin (SERCA pump blocker) to empty calcium stores; entry signal taken 4 min after adding it
- Detection: 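Duplicate raw fluo-4 intensities per well from a plate reader, at rest and four minutes after thapsigargin emptied calcium stores; entry-to-rest ratio filled for only some wells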
- Reading the numbers: calcium entry signal: higher = stronger calcium signal after store depletion; entry to resting ratio: higher = more calcium entry relative to resting level; resting calcium signal: higher = higher resting calcium signal
- Units: calcium entry signal in fluorescence units; resting calcium signal in fluorescence units
- Active means: 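Hit if the duplicate-averaged plate z-score for entry over resting signal is under −3; wells with weak total dye signal (Fmax z < −2) or more than 5 off-targets removed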
- Calls: active = strongly reduced calcium entry; inactive = no strong reduction

Cpr51A (GeneID 36613) [DRSC05969]: calcium entry signal, replicate 1 = 2.28e7; calcium entry signal, replicate 2 = 3.73e7; resting calcium signal, replicate 1 = 1.19e7; resting calcium signal, replicate 2 = 1.59e7
Gagr (GeneID 39824) [DRSC10441]: calcium entry signal, replicate 1 = 3.89e7; calcium entry signal, replicate 2 = 4.60e7; resting calcium signal, replicate 1 = 1.75e7; resting calcium signal, replicate 2 = 2.82e7
CAH3 (GeneID 31804) [DRSC17776]: calcium entry signal, replicate 1 = 3.08e7; calcium entry signal, replicate 2 = 3.37e7; resting calcium signal, replicate 1 = 1.49e7; resting calcium signal, replicate 2 = 1.64e7
Dsor1 (GeneID 31872) [DRSC18462]: calcium entry signal, replicate 1 = 2.86e7; calcium entry signal, replicate 2 = 2.67e7; resting calcium signal, replicate 1 = 1.72e7; resting calcium signal, replicate 2 = 1.62e7
CG3164 (GeneID 33171) [DRSC00572]: calcium entry signal, replicate 1 = 3.98e7; calcium entry signal, replicate 2 = 4.60e7; resting calcium signal, replicate 1 = 1.86e7; resting calcium signal, replicate 2 = 1.88e7
ND-B17 (GeneID 34925) [DRSC01981]: calcium entry signal, replicate 1 = 4.71e7; calcium entry signal, replicate 2 = 3.46e7; resting calcium signal, replicate 1 = 2.01e7; resting calcium signal, replicate 2 = 1.67e7
Rb97D (GeneID 43231) [DRSC16815]: calcium entry signal, replicate 1 = 2.84e7; calcium entry signal, replicate 2 = 4.26e7; resting calcium signal, replicate 1 = 1.51e7; resting calcium signal, replicate 2 = 1.92e7
CG4613 (GeneID 39586) [DRSC10435]: calcium entry signal, replicate 1 = 7.91e7; calcium entry signal, replicate 2 = 9.15e7; resting calcium signal, replicate 1 = 2.95e7; resting calcium signal, replicate 2 = 3.19e7
tsu (GeneID 35924) [DRSC07265]: calcium entry signal, replicate 1 = 6.97e7; calcium entry signal, replicate 2 = 4.22e7; resting calcium signal, replicate 1 = 2.61e7; resting calcium signal, replicate 2 = 1.72e7
Optix (GeneID 44108) [DRSC05078]: calcium entry signal, replicate 1 = 2.87e7; calcium entry signal, replicate 2 = 5.80e7; resting calcium signal, replicate 1 = 1.48e7; resting calcium signal, replicate 2 = 3.14e7
Optix (GeneID 44108) [DRSC07484]: calcium entry signal, replicate 1 = 3.21e7; calcium entry signal, replicate 2 = 3.16e7; resting calcium signal, replicate 1 = 1.42e7; resting calcium signal, replicate 2 = 1.49e7
Optix (GeneID 44108) [DRSC21963]: calcium entry signal, replicate 1 = 3.41e7; calcium entry signal, replicate 2 = 4.44e7; resting calcium signal, replicate 1 = 1.59e7; resting calcium signal, replicate 2 = 2.45e7
N (GeneID 31293) [DRSC18685]: calcium entry signal, replicate 1 = 3.51e7; calcium entry signal, replicate 2 = 6.11e7; entry to resting ratio = 2; resting calcium signal, replicate 1 = 1.72e7; resting calcium signal, replicate 2 = 2.46e7
Hs6st (GeneID 42380) [DRSC14348]: calcium entry signal, replicate 1 = 2.43e7; calcium entry signal, replicate 2 = 3.12e7; resting calcium signal, replicate 1 = 3.38e7; resting calcium signal, replicate 2 = 1.32e7
Hs6st (GeneID 42380) [DRSC15182]: calcium entry signal, replicate 1 = 3.99e7; calcium entry signal, replicate 2 = 4.39e7; resting calcium signal, replicate 1 = 4.53e7; resting calcium signal, replicate 2 = 1.87e7
Hs6st (GeneID 42380) [DRSC15581]: calcium entry signal, replicate 1 = 3.37e7; calcium entry signal, replicate 2 = 4.22e7; resting calcium signal, replicate 1 = 4.57e7; resting calcium signal, replicate 2 = 2.16e7
Hs6st (GeneID 42380) [DRSC21732]: calcium entry signal, replicate 1 = 2.86e7; calcium entry signal, replicate 2 = 3.13e7; resting calcium signal, replicate 1 = 1.53e7; resting calcium signal, replicate 2 = 1.53e7
CG18661 (GeneID 50438) [DRSC02690]: calcium entry signal, replicate 1 = 2.49e7; calcium entry signal, replicate 2 = 3.29e7; resting calcium signal, replicate 1 = 1.20e7; resting calcium signal, replicate 2 = 1.44e7
CG11262 (GeneID 39471) [DRSC09831]: calcium entry signal, replicate 1 = 2.67e7; calcium entry signal, replicate 2 = 3.57e7; resting calcium signal, replicate 1 = 1.44e7; resting calcium signal, replicate 2 = 1.58e7
l(2)10685 (GeneID 33293) [DRSC00665]: calcium entry signal, replicate 1 = 4.58e7; resting calcium signal, replicate 1 = 2.25e7
h-cup + Rbp [DRSC14990]: calcium entry signal, replicate 1 = 2.29e7; calcium entry signal, replicate 2 = 3.41e7; resting calcium signal, replicate 1 = 1.21e7; resting calcium signal, replicate 2 = 5.65e7

3 of these entries in another layout:
Gene | dsRNA | calcium entry signal, replicate 1 | calcium entry signal, replicate 2 | entry to resting ratio | resting calcium signal, replicate 1 | resting calcium signal, replicate 2
ND-B17 (GeneID 34925) | DRSC01981 | 4.71e7 | 3.46e7 | – | 2.01e7 | 1.67e7
Rb97D (GeneID 43231) | DRSC16815 | 2.84e7 | 4.26e7 | – | 1.51e7 | 1.92e7
CG4613 (GeneID 39586) | DRSC10435 | 7.91e7 | 9.15e7 | – | 2.95e7 | 3.19e7
